Measurements reported in the supplement of paper PMC3334620.
Whole data set: some 33,000 sequences, median “E-score (-0.5 to 0.5)” near -0.0059, cut for the highest 2% near 0.26. The list shows a part of the results.

Each sequence was assayed against T1, Cin5 (UniProt P40917) (assay: PBM E-score (8-mer binding enrichment) (E-score (-0.5 to 0.5)); higher = stronger / more preferred TF binding). Details: protein concentration: 100 nM; construct: GST-full length.
T1 sequence: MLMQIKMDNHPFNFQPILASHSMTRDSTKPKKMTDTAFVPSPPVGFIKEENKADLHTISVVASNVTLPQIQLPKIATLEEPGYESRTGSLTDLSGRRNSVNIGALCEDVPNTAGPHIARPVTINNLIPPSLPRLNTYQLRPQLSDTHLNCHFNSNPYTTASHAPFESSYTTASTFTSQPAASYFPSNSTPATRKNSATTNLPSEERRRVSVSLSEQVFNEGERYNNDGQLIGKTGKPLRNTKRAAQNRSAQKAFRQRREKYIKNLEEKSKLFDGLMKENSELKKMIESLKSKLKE
Outline: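 Detection of bound protein used fluorescent anti-GST, with scans normalised by masliner. The proteins were GST-tagged yeast transcription factors applied at about 100-200 nM to universal all-10-mer Agilent arrays made double-stranded by primer extension. Each ungapped eight-base word, pooled with its reverse complement, was scored with an E-score from the Universal PBM Analysis Suite.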

Sequence | PBM E-score
AAATGGCA | 0.176
AAGGCTTA | 0.0712
AGGCGCCG | -0.0787
AGTGTTAC | 0.143
ACCGCATG | -0.148
ACGCTTGA | -0.00096
ATTACCTG | 0.113
CCGCAGCA | 0.0201
CTTTTAAA | -0.00187
AAGGCCGT | -0.091
AAATGGGG | -0.205
ATAGGACA | -0.0323
CCACGTTA | 0.0735
ACTATCCA | 0.0276
CTAGAGTA | 0.0377
CTCCCTCA | -0.174
AACCCTTC | -0.0592
ATCAATAG | 0.0422
AATTCGTC | 0.223
ATGGACCA | -0.0099
CGGCGGAA | 0.0585
AATCTAAT | 0.0853
GTGTGTTA | 0.221
ATCCGTGC | 0.0553
CGCGCAAC | 0.00762

Sequence | PBM E-score
GCACTGAC | -0.141
GAGGACCA | -0.12
GGCTATGA | -0.0844
TATTTGGA | -0.0386
CATAGGAA | -0.08
CCCAGACA | -0.156
CCACGAGA | -0.0932
AGTCCTCC | -0.338
ACACCAGT | 0.00112
AGAACCCA | 0.0173
GCCCTGGA | -0.163
CCCGATGC | -0.0879
ACACAAAC | 0.132
CTTGAAGC | -0.201
GAACTCAC | -0.014
ATAGGCGC | 0.00342
AGGAAAGC | -0.125
ACTAAAGT | -0.071
CGACAATC | 0.0468
ACGTATAA | 0.141
ACCCCTAG | -0.0198
ATTCCAGC | -0.101
CCCCGTCA | -0.0578
AGTCTTCC | -0.156
GGTGAGAC | -0.25

Sequence | PBM E-score
GAATTTGC | 0.0868
CGGATGCA | -0.0891
AACTGCAA | 0.0942
ATGTTCCC | -0.07
AGCACCAC | -0.265
CTACGAAA | -0.0568
CATAAAGA | 0.104
TCAGTACA | 0.134
GCCGTGCC | -0.178
AATACCGT | 0.182
CTCTGACA | -0.16
CCGCGGAA | 0.272
CCCGGACC | -0.231
CACCGTGC | 0.0367
CTAGTCCA | -0.0868
CCCGACCG | -0.176
GAATCGGA | 0.211
GGCAACGA | 0.0486
CGAAGGGA | -0.074
ACGATACG | -0.135
CGGTCTCC | -0.209
CAAAGTGA | -0.0192
CAACCCCA | 0.199
CAGACACC | -0.126
AGTTTGAT | 0.158

Sequence | PBM E-score
TAGGATCA | -0.00359
AACGCGAG | 0.0992
AAACACTT | 0.0343
ATGTCAAA | 0.147
GACACTTA | -0.116
GCTGCAGA | 0.0469
GCCCCGGA | -0.099
GCAACCCA | -0.0066
ACACGCAA | 0.163
GGCGCACC | -0.273
CCAAACCA | -0.0896
AGACGTAT | -0.0245
AGTGATCA | -0.0101
GTTATTAA | 0.214
AACTGCAG | -0.0807
ATAAAGGC | -0.0903
ACCCGTAC | 0.0331
AGAACTCA | 0.08
CGGGTCTA | -0.0543
AGTAGTGG | 0.164
ACTGACCC | -0.204
AGGCGGGC | -0.173
ACATGTCA | 0.0615
AATTAGAA | 0.0862
CCCGAATA | 0.0813

Sequence | PBM E-score
AAGTAGAC | -0.00598
AAATTATT | 0.183
TGCTGTAA | -0.0443
CATGGCAA | 0.00441
AACCTGAA | -0.191
GCCGAACA | 0.0248
CCAACTAG | 0.037
TTCAACAA | 0.06
ACACAGGG | -0.00584
CCAATTGC | -0.0198
GGGCTTGA | -0.269
GGGGATCA | -0.18
AAAGTCCC | -0.117
CTGTCTTC | -0.0257
CAAAGCAC | -0.0917
ACTTCGGG | -0.00617
ATATGGAT | 0.193
ACCTTGCT | -0.0373
ATCCACTG | 0.00934
ACAGCTAG | -0.0798
TAGCGGAA | 0.0123
CGGCACGC | -0.24
ACTTTACG | 0.119
AAAGTTCA | 0.046
TGCCAAAA | 0.0367

Sequence | PBM E-score
CGTGGGAA | -0.132
GTATTAAC | 0.00428
GATAGAGC | -0.026
TGCATGAA | 0.155
CCACTAAC | 0.0063
CACCGTCG | -0.12
CTTGCATA | 0.132
AGCAGATA | -0.0272
GACTCAAC | -0.115
ATTTTGAA | 0.0478
ATTTACGG | 0.226
GATACAAC | 0.0977
ACCACTAT | 0.0321
AAAGAGGT | 0.0523
ACTGAGGA | -0.165
AAGGGATT | -0.164
ACCCAGCG | -0.148
ATTTAGCC | 0.1
CCATTTAC | 0.147
GGCGATAA | 0.103
CACATCCC | 0.00018
ATGATGAA | 0.258
AGGCCGAA | -0.161
GACATTAC | 0.00091
AGCCGTGG | -0.122

Sequence | PBM E-score
CTCTGGTA | -0.0329
ACAAGGTG | -0.0152
GACGAGGA | -0.0685
TATCGCGA | 0.199
ACCAACTG | 0.0343
AGATCGTC | -0.162
CATAGTGG | 0.0868
AGAAGCAG | -0.0731
ACCCCGAC | -0.107
CGGGCTAA | -0.184
TAATAGAA | 0.127
AGTCGAGG | -0.168
CCTTGGGA | -0.163
ACTTACCA | 0.0619
CTCAACTA | 0.0852
AGACAGAC | 0.192
AGGGTCAG | -0.333
ATATAGAA | 0.229
GTAGACTA | -0.305
AAAGTCCA | -0.0275
GAACGAAC | -0.016
AGCCTGGA | -0.015

Quoted at random: six entries already listed
Sequence | PBM E-score
TCAGTACA | 0.134
AGGCGGGC | -0.173
AAAGTCCA | -0.0275
AACCCTTC | -0.0592
AACTGCAA | 0.0942
TATCGCGA | 0.199
